These are yes or no findings as the source states them, for the method shown. A result given as binding can be weak or reduced; the word gives no strength. For part of these data: Sequences can lack the tags named with a protein. Blank lines part the entries; values can stand above or below the binder they belong to.
Legend:
[1] = biological target: Orf63 part of the hybrid Orf63 protein (phage λ); experiment: 1H-15N HSQC comparison of a fused hybrid with free Orf63
[2] = biological target: Phage λ Orf63, 6xHis-Flag affinity tagged (phage λ); experiment: NMR titration

binding [1]: binds
B1: designed α-helix (20-mer) as appended to the C-terminus of Orf63 in the hybrid Orf63 protein (designed binder)
chain: DTKELILAIARKVKEMIKNS

binding [2]: binds
B2: 6xHis-tagged ubiquitin fusion protein with the designed Orf63 binding peptide (designed binder)
chain: GGLVPRGSGDTKELILAIARKVKEMIKNS

binding [2]: no binding (tested: 2:1 mixture)
B3: 6xHis-tagged ubiquitin fusion protein with an unrelated peptide (peptide)
chain: GGLVPRGSGMAIAHAATEYVFADFVLK
